{"source": "paper PMC12906810", "about": "“ZmMYB127 Modulates Maize Kernel Texture and Size by Integrating the Synthesis of Starch, Zein Proteins and Auxin”", "molecules": {"B1": {"name": "His-O2 (protein, UniProt P12959 1-453)", "chain": "MEHVISMEEILGPFWELLPPPAPEPEREQPPVTGIVVGSVIDVAAAGHGDGDMMDQQHATEWTFERLLEEEALTTSTPPPVVVVPNSCCSGALNADRPPVMEEAVTMAPAAVSSAVVGDPMEYNAILRRKLEEDLEAFKMWRADSSVVTSDQRSQGSNNHTGGSSIRNNPVQNKLMNGEDPINNNHAQTAGLGVRLATSSSSRDPSPSDEDMDGEVEILGFKMPTEERVRKKESNRESARRSRYRKAAHLKELEDQVAQLKAENSCLLRRIAALNQKYNDANVDNRVLRADMETLRAKVKMGEDSLKRVIEMSSSVPSSMPISAPTPSSDAPVPPPPIRDSIVGYFSATAADDDASVGNGFLRLQAHQEPASMVVGGTLSATEMNRVAAATHCAGAMELIQTAMGSMPPTSASGSTPPPQIMSCWVQMGPYTWTCIRHCGFRDRWEHFICRRR"}, "B2": {"name": "His-PBF1 (protein, UniProt O24463 1-328)", "chain": "MDMISGSTAATSTPHNNQQAVMLSSPIIKEEARDPKQTRAMPQIGGSGERKPRPQLPEALKCPRCDSNNTKFCYYNNYSMSQPRYFCKACRRYWTHGGTLRNVPIGGGCRKNKHASRFVLGSHTSSSSSATYAPLSPSTNASSSNMSINKHMMMVPNMTMPTPTTMGLFPNVLPTLMPTGGGGGFDFTMDNQHRSLSFTPMSLPSQGPVPMLAAGGSEATPSFLEMLRGGIFHGSSSYNTSLTMSGGNNGMDKPFSLPSYGAMCTNGLSGSTTNDARQLVGPQQDNKAIMKSSNNNNGVSLLNLYWNKHNNNNNNNNNNNNNNNNKGQ"}}, "key": {"[1]": {"molecular_target": "T1, O2-cLUC (maize (Zea mays L.)) (UniProt P12959)", "T1 sequence": "B1 chain", "assay": "split reporter; split luciferase complementation; ZmMYB127-nLUC with O2-cLUC or PBF1-cLUC in N. benthamiana leaves; Luc images after 2 days"}, "[2]": {"molecular_target": "T2, PBF1-cLUC (maize (Zea mays L.)) (UniProt O24463)", "T2 sequence": "B2 chain", "assay": "split reporter; split luciferase complementation; ZmMYB127-nLUC with O2-cLUC or PBF1-cLUC in N. benthamiana leaves; Luc images after 2 days"}, "[3]": {"molecular_target": "T3, OPAQUE2 (O2) ORF fused into the pGBKT7 vector (maize (Zea mays L.)) (UniProt P12959)", "T3 sequence": "B1 chain", "assay": "two-hybrid; O2 or PBF1 in pGBKT7, ZmMYB127 in pGADT7, co-transformed into Y2H gold yeast; growth on SD/-Leu-Trp and SD/-Leu-Trp-His-Ade plates, culture dilutions 1 to 1/1000"}, "[4]": {"molecular_target": "T4, prolamin-box binding factor 1 (PBF1) ORF fused into the pGBKT7 vector (maize (Zea mays L.)) (UniProt O24463)", "T4 sequence": "B2 chain", "assay": "two-hybrid; O2 or PBF1 in pGBKT7, ZmMYB127 in pGADT7, co-transformed into Y2H gold yeast; growth on SD/-Leu-Trp and SD/-Leu-Trp-His-Ade plates, culture dilutions 1 to 1/1000"}, "[5]": {"molecular_target": "GST-ZmMYB127 (maize (Zea mays L.))", "assay": "pull-down; purified GST-ZmMYB127 or GST control immobilised on Glutathione Sepharose beads at 4°C for 2 h; His-PBF1 or His-O2 added for another 2 h; five washes with PBS; immunoblot with anti-GST and anti-His; both purified"}}, "note": "Results are given in words; binding and its absence hold for the method and conditions named. Binding can be weak; no strength is given. Where a sequence is shown, tags or fusion partners need not be part of it. For part of these data: In cells and extracts the contact can be indirect."}
{"molecule": "ZmMYB127-nLUC (maize (Zea mays L.))", "values": [{"measurement": "binding", "setting": "[1]", "result": "binds"}, {"measurement": "binding", "setting": "[2]", "result": "binds"}]}
{"molecule": "ZmMYB127 fused into the pGADT7 vector (maize (Zea mays L.))", "values": [{"measurement": "binding", "setting": "[3]", "result": "binds"}, {"measurement": "binding", "setting": "[4]", "result": "binds"}]}
{"molecule": "B1", "values": [{"measurement": "binding", "setting": "[5]", "result": "binds"}]}
{"molecule": "B2", "values": [{"measurement": "binding", "setting": "[5]", "result": "binds"}]}
